Reference: paper PMC13208891
No constants are given. Whether binding was seen depends on the method and setting. Some results given as binding are weak or reduced against the parent protein; the word gives no strength.

Chains of the proteins cited; added tags and fusions are not shown. Lines headed by an entry give the natural chain unless they say otherwise; changes in a name come on top.
UniProt P35637: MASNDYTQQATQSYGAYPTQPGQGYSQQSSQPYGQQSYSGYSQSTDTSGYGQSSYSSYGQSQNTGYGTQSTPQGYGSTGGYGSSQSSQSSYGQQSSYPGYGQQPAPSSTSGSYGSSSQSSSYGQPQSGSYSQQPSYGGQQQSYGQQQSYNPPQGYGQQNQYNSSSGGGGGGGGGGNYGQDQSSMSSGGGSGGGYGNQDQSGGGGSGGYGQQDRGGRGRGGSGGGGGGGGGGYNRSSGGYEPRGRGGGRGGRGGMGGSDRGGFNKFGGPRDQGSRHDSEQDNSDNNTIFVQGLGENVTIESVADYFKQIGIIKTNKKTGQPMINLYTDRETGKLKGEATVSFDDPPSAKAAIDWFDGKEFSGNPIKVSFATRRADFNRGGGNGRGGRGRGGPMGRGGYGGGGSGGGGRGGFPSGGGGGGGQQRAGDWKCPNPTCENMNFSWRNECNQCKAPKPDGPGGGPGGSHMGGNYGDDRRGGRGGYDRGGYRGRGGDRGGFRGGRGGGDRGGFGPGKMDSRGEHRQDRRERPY
UniProt Q92804: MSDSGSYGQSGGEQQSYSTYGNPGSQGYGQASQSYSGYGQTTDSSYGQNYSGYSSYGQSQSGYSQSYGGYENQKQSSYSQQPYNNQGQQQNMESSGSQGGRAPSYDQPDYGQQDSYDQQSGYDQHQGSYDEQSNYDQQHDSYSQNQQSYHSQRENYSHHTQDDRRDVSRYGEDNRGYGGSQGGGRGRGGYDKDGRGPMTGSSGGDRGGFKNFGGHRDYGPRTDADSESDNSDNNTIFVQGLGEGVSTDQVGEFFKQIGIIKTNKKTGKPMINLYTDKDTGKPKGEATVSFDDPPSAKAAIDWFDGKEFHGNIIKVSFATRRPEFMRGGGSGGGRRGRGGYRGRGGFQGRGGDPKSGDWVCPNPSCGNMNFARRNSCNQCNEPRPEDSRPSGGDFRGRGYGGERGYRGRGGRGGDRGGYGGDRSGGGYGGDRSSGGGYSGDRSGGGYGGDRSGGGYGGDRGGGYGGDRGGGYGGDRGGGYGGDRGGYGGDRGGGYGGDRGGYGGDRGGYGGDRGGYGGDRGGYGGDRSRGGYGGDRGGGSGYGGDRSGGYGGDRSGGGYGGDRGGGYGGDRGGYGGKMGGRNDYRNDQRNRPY

Target: FUS expressed as a DB (Gal4 DNA-binding domain) fusion protein (human) (UniProt P35637)
Assay: two-hybrid; Gal4 yeast two-hybrid; FUS as DB fusion, TAF15 as AD fusion; diploids of Y8800 x Y8930 spotted on SD/-Leu/-Trp/-His, growth without histidine (HIS3 reporter), 30 °C, 5 days

Row | Substance | binding
1 | TAF15 N-terminal deletion mutant (TAF15ΔN, lacking amino acids 1-150), AD fusion (from UniProt Q92804 151-592) (domain or fragment) | binds
2 | TAF15 C-terminal deletion mutant (TAF15ΔC, lacking amino acids 385-592), AD fusion (from UniProt Q92804 1-384) (domain or fragment) | no binding
